PubChem BioAssay AID1224828 – NIAID – 2016
Assay: 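Knock-downs that increase or decrease LPS-induced p65 nuclear translocation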 (primary screen). Cells: mouse RAW264.7 G9 macrophage reporter cells (GFP-p65, Tnf promoter-mCherry). Reagents: siRNA pool against mouse genes, 100 nM. Duration: 2 days siRNA transfection, then 40 min LPS before fixation. Treatment: LPS (Salmonella minnesota R595) at 10 ng/ml. Detection: 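Imaged p65 nuclear translocation ratio, normalised to the plate median, converted to robust z-scores and averaged across two replicates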. Reading the numbers: p65 translocation robust z-score: higher = more nuclear NF-kappaB p65 after LPS than the plate median; nuclear/cytoplasmic p65 ratio: higher = more nuclear NF-kappaB p65. Active means: 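Called active when z exceeds 3.3 or falls under -1.56 (median of Tlr4 controls), giving activity score of at least 50; no calls for control wells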. Meaning of the calls: active = hit (p65 shift raised or lowered); inactive = no clear change.
In all, the deposit lists about 17,000 reagents; this is an unselected part. 762 of all reagents (4.5%) count as active. 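Active calls include both raised and lowered p65 entry, mostly lowered; wells with fewer than 50 cells lack a z-score.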 The raw values are shown without normalisation.

The opening 2 records as a preview:
gene knocked down | PubChem SID | p65 translocation robust z-score | nuclear/cytoplasmic p65 ratio, rep 1 | nuclear/cytoplasmic p65 ratio, rep 2 | low cell count flag | Outcome
Thoc5 | SID315476648 | -1.23 | 1.39 | 1.38 | enough cells to score | inactive
Anapc5 | SID315471946 | 0.5 | 1.68 | 1.7 | enough cells to score | inactive

Results, from the start:
gene knocked down | PubChem SID | p65 translocation robust z-score | nuclear/cytoplasmic p65 ratio, rep 1 | nuclear/cytoplasmic p65 ratio, rep 2 | low cell count flag | Outcome
Thoc5 | SID315476648 | -1.23 | 1.39 | 1.38 | enough cells to score | inactive
Anapc5 | SID315471946 | 0.5 | 1.68 | 1.7 | enough cells to score | inactive
Drgx | SID315476638 | -1.04 | 1.18 | 1.16 | enough cells to score | inactive
Plagl2 | SID315471295 | 0.05 | 1.46 | 1.46 | enough cells to score | inactive
Prdx3 | SID315465428 | 1.04 | 1.66 | 1.53 | enough cells to score | inactive
Gsdma | SID315471844 | -1.45 | 1.45 | 1.31 | enough cells to score | inactive
Ybx2 | SID315471073 | -0.78 | 1.23 | 1.23 | enough cells to score | inactive
Spock1 | SID315469434 | -0.53 | 1.36 | 1.16 | enough cells to score | inactive
Paip2 | SID315473275 | 0.64 | 1.51 | 1.33 | enough cells to score | inactive
Or1j11 | SID315480570 | -1.29 | 1.41 | 1.11 | enough cells to score | inactive
Aamdc | SID315472334 | 2.3 | 1.82 | 1.6 | enough cells to score | inactive
Atp6v0b | SID315476999 | -0.56 | 1.52 | 1.43 | enough cells to score | inactive
Wfdc18 | SID315466588 | 2.34 | 1.96 | 1.76 | enough cells to score | inactive
Srl | SID315476539 | 0.74 | 1.39 | 1.65 | enough cells to score | inactive
Sulf1 | SID315479519 | 1.08 | 1.58 | 1.34 | enough cells to score | inactive
Rcor3 | SID315477882 | -0.37 | 1.39 | 1.16 | enough cells to score | inactive
Pcdhb5 | SID315475988 | 1.92 | 1.66 | 1.7 | enough cells to score | inactive
Tmt1b | SID315474270 | 2.34 | 1.88 | 1.76 | enough cells to score | inactive
Ptma | SID315468787 | -0.72 | 1.37 | 1.34 | enough cells to score | inactive
Qki | SID315468841 | 0.53 | 1.43 | 1.29 | enough cells to score | inactive
Nub1 | SID315471033 | 0.03 | 1.4 | 1.43 | enough cells to score | inactive
Prkcsh | SID315468692 | -0.22 | 1.63 | 1.37 | enough cells to score | inactive
Ly86 | SID315467788 | -0.83 | 1.58 | 1.43 | enough cells to score | inactive
Cfap298 | SID315473357 | 1.14 | 1.58 | 1.72 | enough cells to score | inactive
Gab1 | SID315466790 | -2.05 | 1.11 | 1.16 | enough cells to score | active
Tedc1 | SID315476456 | – | 1.47 | 2.39 | fewer than 50 cells per well; well left out of scoring | inactive
Cc2d1a | SID315477723 | -0.18 | 1.49 | 1.89 | enough cells to score | inactive
Hspbap1 | SID315472575 | 1.59 | 1.83 | 1.59 | enough cells to score | inactive
Gsto1 | SID315467068 | -0.45 | 1.3 | 1.39 | enough cells to score | inactive
Wfikkn2 | SID315481009 | -0.83 | 1.4 | 1.47 | enough cells to score | inactive
Agrn | SID315465348 | -0.85 | 1.44 | 1.59 | enough cells to score | inactive
Nefh | SID315481750 | -0.19 | 1.39 | 1.34 | enough cells to score | inactive
Mettl23 | SID315474936 | 0.03 | 1.46 | 1.54 | enough cells to score | inactive
Txndc2 | SID315477792 | -3.55 | 0.925 | 0.992 | enough cells to score | active
Asb15 | SID315475648 | 1.04 | 1.75 | 1.66 | enough cells to score | inactive
Cox15 | SID315478472 | -0.03 | 1.54 | 1.32 | enough cells to score | inactive
Platr26 | SID315481783 | 0.38 | 1.06 | 1.61 | enough cells to score | inactive
Nkx2-6 | SID315468183 | -1.18 | 1.5 | 1.39 | enough cells to score | inactive
P4ha1 | SID315468372 | 0.37 | 1.56 | 1.4 | enough cells to score | inactive
Rpl28 | SID315469016 | -0.87 | 1.27 | 1.15 | enough cells to score | inactive
Ifit1bl2 | SID315476971 | -0.07 | 1.56 | 1.64 | enough cells to score | inactive
E330013P04Rik | SID315476600 | -2.03 | 1.18 | 1.14 | enough cells to score | active
Stoml2 | SID315472525 | 0.25 | 1.44 | 1.26 | enough cells to score | inactive
Klra2 | SID315467662 | -1.55 | 1.37 | 1.19 | enough cells to score | inactive
Slc9a7 | SID315479306 | 0.31 | 1.38 | 1.61 | enough cells to score | inactive
9430019C24Rik | SID315475457 | 1.51 | 1.64 | 1.75 | enough cells to score | inactive
S100a3 | SID315469079 | -0.74 | 1.42 | 1.75 | enough cells to score | inactive
Mc2r | SID315467854 | -0.08 | 1.46 | 1.61 | enough cells to score | inactive
Gcg | SID315466852 | -1.48 | 1.31 | 1.35 | enough cells to score | inactive
Zfp623 | SID315475634 | -1.39 | 1.18 | 1.32 | enough cells to score | inactive
Flywch2 | SID315475413 | – | 1.08 | 1.41 | fewer than 50 cells per well; well left out of scoring | inactive
Wsb2 | SID315471974 | 0.64 | 1.4 | 1.32 | enough cells to score | inactive
Sfn | SID315471315 | 0.4 | 1.64 | 1.58 | enough cells to score | inactive
Gucy2c | SID315467081 | -1.23 | 1.49 | 1.22 | enough cells to score | inactive
Or52a5 | SID315468331 | -1.55 | 1.24 | 1.09 | enough cells to score | inactive
Slc22a21 | SID315471586 | 0.55 | 1.44 | 1.35 | enough cells to score | inactive
Rpap2 | SID315478902 | -0.78 | 1.5 | 1.39 | enough cells to score | inactive
Ankle2 | SID315474325 | -0.32 | 1.45 | 1.45 | enough cells to score | inactive
Cxcl10 | SID315467379 | -1 | 1.54 | 1.25 | enough cells to score | inactive
